In the assay the target is T1, SLC38A9 (human (endogenous in U87MG)) (UniProt Q8NBW4).
T1 sequence: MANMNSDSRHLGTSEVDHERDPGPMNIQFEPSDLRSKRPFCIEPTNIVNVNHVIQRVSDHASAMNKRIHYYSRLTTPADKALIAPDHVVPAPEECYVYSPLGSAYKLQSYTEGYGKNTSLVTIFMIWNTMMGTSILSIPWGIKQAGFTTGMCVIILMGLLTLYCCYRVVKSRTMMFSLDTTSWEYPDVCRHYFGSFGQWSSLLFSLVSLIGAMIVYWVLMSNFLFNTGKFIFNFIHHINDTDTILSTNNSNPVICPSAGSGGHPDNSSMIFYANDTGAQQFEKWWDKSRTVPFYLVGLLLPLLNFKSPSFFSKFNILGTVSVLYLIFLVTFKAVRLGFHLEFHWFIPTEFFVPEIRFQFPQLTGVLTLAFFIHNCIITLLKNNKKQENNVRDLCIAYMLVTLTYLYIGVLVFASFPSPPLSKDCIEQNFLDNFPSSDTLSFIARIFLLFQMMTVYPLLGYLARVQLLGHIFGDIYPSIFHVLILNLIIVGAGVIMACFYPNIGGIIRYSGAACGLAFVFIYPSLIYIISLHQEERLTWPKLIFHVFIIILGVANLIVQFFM
The assay is described as follows: co-IP; SLC38A9 captured from U87MG lysate (400 μl) with 30 μg biotinylated anti-SLC38A9 antibody overnight at 4°C, then incubated with Tat or mutant Tat (10 μg in 90 μl TBS) overnight at 4°C; eluate immunoblotted for Tat; biotinylated isotype IgG as negative control; only the binder purified. (In general: In western blotting, separated proteins are transferred to a membrane and probed.)

Results are given in words; binding and its absence hold for the method and conditions named. In cells and extracts the contact can be indirect. Binding can be weak; no strength is given.

This passage reports binding results from article PMC12053450.

For the substance HIV-1 Tat, the binding result is given as “binds”.
